Laboratory results from patent US20090011051A1, “Methods, Compositions and Articles of Manufacture for HIF Modulating Compounds” (priority 2006, published 2009).
At least one compound was matched to its structure with a doubt left.

Experiments:
HIF-1 [1] = test: HIF nuclear localization by immunostaining; assay type: in vivo, C. elegans; conditions: wildtype worms
HIF-1 [2] = test: HIF-1 GFP reporter (nhr-57::GFP, strain ZG120); assay type: in vivo, C. elegans
[3] = cited from earlier work

S [Compound H2S, Hydrogen sulfide]
nuclear localization of HIF-1 (HIF-1 [1]; especially in the head and the tail (including the neurons)): increases nuclear localization of HIF-1
time of maximum nuclear localization (HIF-1 [1]; sulfide exposure): 30 min
HIF-1 induction compared with hypoxia (HIF-1 [2]; hypoxia: maximal GFP after five hours): more rapid and more robust induction than hypoxia
induction of HIF-1 activity (HIF-1 [2]; nematode C. elegans as model system): capable of inducing HIF-1 activity
GFP pattern (HIF-1 dependent nhr-57::GFP) (HIF-1 [2]; wildtype worms bearing nhr-57::GFP): GFP throughout the worm, especially in the head and tail regions surrounding the neurons
equilibrium constant K1 (H2S to HS−) [3]: 1.039 E^−07
equilibrium constant K2 (HS− to S2−) [3]: 6.43 E^−16
